Paper PMC10985093
No constants are given. Whether binding was seen depends on the method and setting. Binding seen in cells or lysates may run through a third protein. Some entries that bind do so weakly or less than the wild type.

Legend:
[1] = target: T1, O-GlcNAc transferase (OGT), endogenous (mouse (endogenous in mESCs)) (UniProt Q8CGY8); assay: co-IP; nuclear extracts of mESCs (10 million cells); endogenous CTCF immunoprecipitated with 5 µg CTCF antibody pre-bound to Protein G agarose, OGT detected by western blot; the OGT immunoprecipitation done in the same way
T1 sequence: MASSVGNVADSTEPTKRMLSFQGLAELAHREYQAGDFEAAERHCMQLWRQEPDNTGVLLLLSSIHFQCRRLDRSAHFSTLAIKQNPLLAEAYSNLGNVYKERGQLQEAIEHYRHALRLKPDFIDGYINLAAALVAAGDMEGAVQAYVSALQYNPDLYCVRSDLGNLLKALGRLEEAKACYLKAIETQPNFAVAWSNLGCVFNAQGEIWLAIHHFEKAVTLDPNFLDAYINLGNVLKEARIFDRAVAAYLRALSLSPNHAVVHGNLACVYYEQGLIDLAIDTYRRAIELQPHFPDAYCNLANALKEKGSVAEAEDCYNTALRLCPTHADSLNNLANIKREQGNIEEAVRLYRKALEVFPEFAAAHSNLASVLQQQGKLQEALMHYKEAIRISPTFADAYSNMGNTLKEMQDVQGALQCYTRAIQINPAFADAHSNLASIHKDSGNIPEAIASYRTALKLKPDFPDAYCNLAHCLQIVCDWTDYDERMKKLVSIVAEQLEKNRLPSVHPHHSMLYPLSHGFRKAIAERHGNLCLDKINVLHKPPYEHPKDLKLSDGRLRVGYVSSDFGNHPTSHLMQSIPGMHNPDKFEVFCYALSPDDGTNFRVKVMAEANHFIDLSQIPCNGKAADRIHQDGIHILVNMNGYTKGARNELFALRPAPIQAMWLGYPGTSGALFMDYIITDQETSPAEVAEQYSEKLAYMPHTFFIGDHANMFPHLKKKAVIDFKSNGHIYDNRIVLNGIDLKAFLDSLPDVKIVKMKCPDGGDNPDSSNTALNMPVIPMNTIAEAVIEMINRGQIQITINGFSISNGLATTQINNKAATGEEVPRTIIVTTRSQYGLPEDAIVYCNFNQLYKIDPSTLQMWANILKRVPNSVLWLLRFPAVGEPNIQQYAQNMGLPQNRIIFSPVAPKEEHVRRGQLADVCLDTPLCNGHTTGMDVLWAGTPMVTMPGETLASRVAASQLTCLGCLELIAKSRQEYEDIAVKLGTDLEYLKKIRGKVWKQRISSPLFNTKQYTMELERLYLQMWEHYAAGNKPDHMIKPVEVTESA

[2] = target: T2, CCCTC-binding factor (CTCF), endogenous (mouse (endogenous in mESCs)) (UniProt Q61164); assay: as above
T2 sequence (chain, O-GlcNAc at T668 (in 60.09% of CTCF)): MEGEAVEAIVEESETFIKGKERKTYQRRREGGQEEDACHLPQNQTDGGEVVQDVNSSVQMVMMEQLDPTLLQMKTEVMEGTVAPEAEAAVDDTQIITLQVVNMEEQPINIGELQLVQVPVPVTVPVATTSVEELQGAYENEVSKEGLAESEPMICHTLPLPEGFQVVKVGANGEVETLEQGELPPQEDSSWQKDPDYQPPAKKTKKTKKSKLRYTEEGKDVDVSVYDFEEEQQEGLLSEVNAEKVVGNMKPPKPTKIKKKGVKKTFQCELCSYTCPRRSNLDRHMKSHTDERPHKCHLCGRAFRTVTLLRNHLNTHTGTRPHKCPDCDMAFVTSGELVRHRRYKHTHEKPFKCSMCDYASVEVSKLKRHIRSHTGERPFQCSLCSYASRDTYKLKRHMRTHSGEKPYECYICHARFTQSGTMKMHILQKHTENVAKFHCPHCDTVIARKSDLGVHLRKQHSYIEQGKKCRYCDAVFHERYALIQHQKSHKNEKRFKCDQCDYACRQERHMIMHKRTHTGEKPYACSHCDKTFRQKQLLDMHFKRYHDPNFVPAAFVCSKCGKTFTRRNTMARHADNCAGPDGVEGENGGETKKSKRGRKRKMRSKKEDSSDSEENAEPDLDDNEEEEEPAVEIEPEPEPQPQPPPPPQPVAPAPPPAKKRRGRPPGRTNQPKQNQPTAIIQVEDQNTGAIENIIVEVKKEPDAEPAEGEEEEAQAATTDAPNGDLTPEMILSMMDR

CCCTC-binding factor (CTCF), endogenous (from UniProt Q61164 1-736)
binding [1]: binds

B1: O-GlcNAc transferase (OGT), endogenous (enzyme, UniProt Q8CGY8 1-1046)
chain: MASSVGNVADSTEPTKRMLSFQGLAELAHREYQAGDFEAAERHCMQLWRQEPDNTGVLLLLSSIHFQCRRLDRSAHFSTLAIKQNPLLAEAYSNLGNVYKERGQLQEAIEHYRHALRLKPDFIDGYINLAAALVAAGDMEGAVQAYVSALQYNPDLYCVRSDLGNLLKALGRLEEAKACYLKAIETQPNFAVAWSNLGCVFNAQGEIWLAIHHFEKAVTLDPNFLDAYINLGNVLKEARIFDRAVAAYLRALSLSPNHAVVHGNLACVYYEQGLIDLAIDTYRRAIELQPHFPDAYCNLANALKEKGSVAEAEDCYNTALRLCPTHADSLNNLANIKREQGNIEEAVRLYRKALEVFPEFAAAHSNLASVLQQQGKLQEALMHYKEAIRISPTFADAYSNMGNTLKEMQDVQGALQCYTRAIQINPAFADAHSNLASIHKDSGNIPEAIASYRTALKLKPDFPDAYCNLAHCLQIVCDWTDYDERMKKLVSIVAEQLEKNRLPSVHPHHSMLYPLSHGFRKAIAERHGNLCLDKINVLHKPPYEHPKDLKLSDGRLRVGYVSSDFGNHPTSHLMQSIPGMHNPDKFEVFCYALSPDDGTNFRVKVMAEANHFIDLSQIPCNGKAADRIHQDGIHILVNMNGYTKGARNELFALRPAPIQAMWLGYPGTSGALFMDYIITDQETSPAEVAEQYSEKLAYMPHTFFIGDHANMFPHLKKKAVIDFKSNGHIYDNRIVLNGIDLKAFLDSLPDVKIVKMKCPDGGDNPDSSNTALNMPVIPMNTIAEAVIEMINRGQIQITINGFSISNGLATTQINNKAATGEEVPRTIIVTTRSQYGLPEDAIVYCNFNQLYKIDPSTLQMWANILKRVPNSVLWLLRFPAVGEPNIQQYAQNMGLPQNRIIFSPVAPKEEHVRRGQLADVCLDTPLCNGHTTGMDVLWAGTPMVTMPGETLASRVAASQLTCLGCLELIAKSRQEYEDIAVKLGTDLEYLKKIRGKVWKQRISSPLFNTKQYTMELERLYLQMWEHYAAGNKPDHMIKPVEVTESA
binding [2]: binds
